PubChem BioAssay AID686938 – Drosophila RNAi Screening Center, 2013

- Test: 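Looking for CRAC channel components and the factors controlling them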 (primary screen)
- System: Drosophila S2R+ cells
- Reagents: long dsRNA against Drosophila genes, about 0.25 µg dsRNA per well, roughly 10,000 cells
- Duration: 5 days of knock-down before the calcium assay
- Conditions: thapsigargin (SERCA pump blocker) to empty calcium stores; entry signal taken 4 min after adding it
- Measured: 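Per-well fluo-4 fluorescence in two replicates, unnormalised, measured in resting cells and 4 min after store depletion by the SERCA blocker thapsigargin; ratio of the two present in few wells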
- Direction: calcium entry signal: higher = stronger calcium signal after store depletion; resting calcium signal: higher = higher resting calcium signal
- Active means: 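Hit if the duplicate-averaged plate z-score for entry over resting signal is under −3; wells with weak total dye signal (Fmax z < −2) or more than 5 off-targets removed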
- Calls: active = strongly reduced calcium entry; inactive = no strong reduction
The deposit covers about 23,000 reagents; below is an unselected part of those that have a named target and a result. Of all reagents, 75 (0.33%) got an active call. 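Raw plate signals without normalisation; calls rest on plate z-scores that were not deposited; ratio present for only 364 wells.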 Reagents against one gene are numbered here. A plus sign joins genes that one reagent is predicted to hit. No sequences are given here. Not stated in the record: the dose of the treatment.

The opening 2 entries as a preview:
CG32755 — calcium entry signal, replicate 1 (fluorescence units): 2.81e7; calcium entry signal, replicate 2 (fluorescence units): 5.10e7; resting calcium signal, replicate 1 (fluorescence units): 1.50e7; resting calcium signal, replicate 2 (fluorescence units): 2.39e7; outcome: inactive
side-II #1 — calcium entry signal, replicate 1 (fluorescence units): 3.47e7; calcium entry signal, replicate 2 (fluorescence units): 4.09e7; resting calcium signal, replicate 1 (fluorescence units): 1.85e7; resting calcium signal, replicate 2 (fluorescence units): 2.15e7; outcome: inactive

The listing, from the first entry:
CG32755 — calcium entry signal, replicate 1 (fluorescence units): 2.81e7; calcium entry signal, replicate 2 (fluorescence units): 5.10e7; resting calcium signal, replicate 1 (fluorescence units): 1.50e7; resting calcium signal, replicate 2 (fluorescence units): 2.39e7; outcome: inactive
side-II #1 — calcium entry signal, replicate 1 (fluorescence units): 3.47e7; calcium entry signal, replicate 2 (fluorescence units): 4.09e7; resting calcium signal, replicate 1 (fluorescence units): 1.85e7; resting calcium signal, replicate 2 (fluorescence units): 2.15e7; outcome: inactive
side-II #2 — calcium entry signal, replicate 1 (fluorescence units): 3.58e7; calcium entry signal, replicate 2 (fluorescence units): 4.54e7; resting calcium signal, replicate 1 (fluorescence units): 2.02e7; resting calcium signal, replicate 2 (fluorescence units): 2.14e7; outcome: inactive
side-II #3 — calcium entry signal, replicate 1 (fluorescence units): 3.77e7; calcium entry signal, replicate 2 (fluorescence units): 2.70e7; resting calcium signal, replicate 1 (fluorescence units): 1.63e7; resting calcium signal, replicate 2 (fluorescence units): 1.25e7; outcome: inactive
side-II #4 — calcium entry signal, replicate 1 (fluorescence units): 3.60e7; calcium entry signal, replicate 2 (fluorescence units): 6.01e7; resting calcium signal, replicate 1 (fluorescence units): 1.57e7; resting calcium signal, replicate 2 (fluorescence units): 2.71e7; outcome: inactive
side-II #5 — calcium entry signal, replicate 1 (fluorescence units): 3.16e7; calcium entry signal, replicate 2 (fluorescence units): 1.75e7; resting calcium signal, replicate 1 (fluorescence units): 1.38e7; resting calcium signal, replicate 2 (fluorescence units): 1.01e7; outcome: inactive
side-II #6 — calcium entry signal, replicate 1 (fluorescence units): 5.67e7; calcium entry signal, replicate 2 (fluorescence units): 3.69e7; resting calcium signal, replicate 1 (fluorescence units): 2.75e7; resting calcium signal, replicate 2 (fluorescence units): 1.73e7; outcome: inactive
Naa40 — calcium entry signal, replicate 1 (fluorescence units): 4.01e7; calcium entry signal, replicate 2 (fluorescence units): 4.83e7; resting calcium signal, replicate 1 (fluorescence units): 1.97e7; resting calcium signal, replicate 2 (fluorescence units): 2.18e7; outcome: inactive
CG11069 — calcium entry signal, replicate 1 (fluorescence units): 4.97e7; calcium entry signal, replicate 2 (fluorescence units): 4.70e7; resting calcium signal, replicate 1 (fluorescence units): 2.28e7; resting calcium signal, replicate 2 (fluorescence units): 1.98e7; outcome: inactive
Proc-R — calcium entry signal, replicate 1 (fluorescence units): 2.75e7; calcium entry signal, replicate 2 (fluorescence units): 4.19e7; resting calcium signal, replicate 1 (fluorescence units): 1.36e7; resting calcium signal, replicate 2 (fluorescence units): 1.96e7; outcome: inactive
CG5762 — calcium entry signal, replicate 1 (fluorescence units): 4.13e7; calcium entry signal, replicate 2 (fluorescence units): 2.91e7; resting calcium signal, replicate 1 (fluorescence units): 1.95e7; resting calcium signal, replicate 2 (fluorescence units): 1.44e7; outcome: inactive
CG2100 — calcium entry signal, replicate 1 (fluorescence units): 3.10e7; calcium entry signal, replicate 2 (fluorescence units): 3.70e7; resting calcium signal, replicate 1 (fluorescence units): 1.35e7; resting calcium signal, replicate 2 (fluorescence units): 1.51e7; outcome: inactive
Rad60 — calcium entry signal, replicate 1 (fluorescence units): 3.54e7; calcium entry signal, replicate 2 (fluorescence units): 6.06e7; resting calcium signal, replicate 1 (fluorescence units): 2.18e7; resting calcium signal, replicate 2 (fluorescence units): 2.30e7; outcome: inactive
CG6330 — calcium entry signal, replicate 1 (fluorescence units): 3.27e7; calcium entry signal, replicate 2 (fluorescence units): 3.77e7; resting calcium signal, replicate 1 (fluorescence units): 1.54e7; resting calcium signal, replicate 2 (fluorescence units): 1.95e7; outcome: inactive
EMRE — calcium entry signal, replicate 1 (fluorescence units): 5.05e7; calcium entry signal, replicate 2 (fluorescence units): 5.57e7; resting calcium signal, replicate 1 (fluorescence units): 2.03e7; resting calcium signal, replicate 2 (fluorescence units): 2.54e7; outcome: inactive
ImpE1 #1 — calcium entry signal, replicate 1 (fluorescence units): 2.40e7; calcium entry signal, replicate 2 (fluorescence units): 3.96e7; resting calcium signal, replicate 1 (fluorescence units): 1.18e7; resting calcium signal, replicate 2 (fluorescence units): 1.88e7; outcome: inactive
ImpE1 #2 — calcium entry signal, replicate 1 (fluorescence units): 2.53e7; calcium entry signal, replicate 2 (fluorescence units): 2.92e7; resting calcium signal, replicate 1 (fluorescence units): 1.18e7; resting calcium signal, replicate 2 (fluorescence units): 1.40e7; outcome: inactive
CG18598 — calcium entry signal, replicate 1 (fluorescence units): 3.40e7; calcium entry signal, replicate 2 (fluorescence units): 3.75e7; resting calcium signal, replicate 1 (fluorescence units): 3.75e7; resting calcium signal, replicate 2 (fluorescence units): 1.66e7; outcome: inactive
CG42579 — calcium entry signal, replicate 1 (fluorescence units): 3.27e7; calcium entry signal, replicate 2 (fluorescence units): 4.01e7; resting calcium signal, replicate 1 (fluorescence units): 1.75e7; resting calcium signal, replicate 2 (fluorescence units): 1.94e7; outcome: inactive
Crtp — calcium entry signal, replicate 1 (fluorescence units): 4.20e7; calcium entry signal, replicate 2 (fluorescence units): 5.25e7; resting calcium signal, replicate 1 (fluorescence units): 2.21e7; resting calcium signal, replicate 2 (fluorescence units): 2.25e7; outcome: inactive
CG3368 — calcium entry signal, replicate 1 (fluorescence units): 3.79e7; calcium entry signal, replicate 2 (fluorescence units): 4.07e7; resting calcium signal, replicate 1 (fluorescence units): 2.01e7; resting calcium signal, replicate 2 (fluorescence units): 1.77e7; outcome: inactive
CG15739 — calcium entry signal, replicate 1 (fluorescence units): 3.44e7; calcium entry signal, replicate 2 (fluorescence units): 4.30e7; resting calcium signal, replicate 1 (fluorescence units): 1.77e7; resting calcium signal, replicate 2 (fluorescence units): 1.85e7; outcome: inactive
CG14684 — calcium entry signal, replicate 1 (fluorescence units): 4.03e7; calcium entry signal, replicate 2 (fluorescence units): 3.29e7; resting calcium signal, replicate 1 (fluorescence units): 2.01e7; resting calcium signal, replicate 2 (fluorescence units): 1.74e7; outcome: inactive
EAChm — calcium entry signal, replicate 1 (fluorescence units): 3.38e7; calcium entry signal, replicate 2 (fluorescence units): 5.24e7; resting calcium signal, replicate 1 (fluorescence units): 1.71e7; resting calcium signal, replicate 2 (fluorescence units): 2.01e7; outcome: inactive
CG32299 + CG32298 #1 — calcium entry signal, replicate 1 (fluorescence units): 2.65e7; calcium entry signal, replicate 2 (fluorescence units): 4.89e7; resting calcium signal, replicate 1 (fluorescence units): 2.29e7; resting calcium signal, replicate 2 (fluorescence units): 2.16e7; outcome: inactive
CG32299 + CG32298 #2 — calcium entry signal, replicate 1 (fluorescence units): 3.71e7; calcium entry signal, replicate 2 (fluorescence units): 5.96e7; resting calcium signal, replicate 1 (fluorescence units): 1.83e7; resting calcium signal, replicate 2 (fluorescence units): 3.10e7; outcome: inactive
Rexo5 — calcium entry signal, replicate 1 (fluorescence units): 2.46e7; calcium entry signal, replicate 2 (fluorescence units): 2.92e7; resting calcium signal, replicate 1 (fluorescence units): 1.28e7; resting calcium signal, replicate 2 (fluorescence units): 1.61e7; outcome: inactive
